Data published in US20230077896A1, “MICROBIAL LIPID PRODUCTION UTILIZING POST-FERMENTATION INDUSTRIAL WASTE STREAM FEEDSTOCKS” (C16 Biosciences, Inc., priority 2020, published 2023).

Test: LC-MS-MS quantification of inhibitor concentration in exemplary feedstock (corn stillage syrup)
Conditions: [M + H]+, estimated from spiked standards

| SMILES | Concentration range within exemplary feedstock [µM] |
| --- | --- |
| NCC(=O)CCC(=O)O [5-aminolevulinic acid] | 10 to 200 |
| O=Cc1ccc(O)cc1 [4-hydroxybenzaldehyde] | 10 to 100 |
